# This is one part of the list. The main result of the screen is listed elsewhere. These columns were measured beside it and carry no call. Compounds called inactive in the main read-out are mostly missing here. The note in brackets gives the kind of curve behind each potency; many fits are weak.
# Experiment: qHTS Assay to Find Inhibitors of Chronic Active B-Cell Receptor Signaling
# Details: ABC-DLBCL IkBa-CBG/CBR reporter, luminescence ratio (green luciferase fused to IkBa over red control in TMD8 lymphoma cells), 4 h
# How it was run: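 Concentration-response series (up to 46 uM) were applied to TMD8 dual-reporter cells for 4 h at 37C with doxycycline. Green/red ratio, after filter-overlap correction, defined %Activity; red signal alone was normalised to basal cells and zero luminescence.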
# [1] = measured here: CBR red luminescence, cell number
# [2] = measured here: IkBa-CBG green luminescence
Structure (SMILES),AC50 [1],AC50 [2]
O=C(NN1C(=O)c2cc(Br)ccc2NC1c1cc(Br)cc(Br)c1O)c1ccncc1 (stereo not drawn),"6.51 µM [falling, partial curve, poor fit]",–
CCOc1ccc(OCC(=O)NCc2n[nH]c(=O)c3ccccc23)cc1,"16.4 µM [falling, single point]",–
CCn1nc(C(=O)O)c(=O)c2cc3c(cc21)OCO3,"0.1 µM [falling, full curve, poor fit]",–
CC(C)C(=O)Nc1ccccc1Cc1ccccc1,"22.4 µM [rising, single point]",–
CCC(C)NC(=O)c1cc2cc3ccc(OC)cc3nc2s1 (stereo not drawn),"29.1 µM [falling, single point]",–
CN(C)c1nc(=S)nc(NCc2ccccc2)[nH]1,"35.5 µM [rising, single point]",–
CC(C)c1ccc(CNc2ccc([N+](=O)[O-])cn2)cc1,"35.5 µM [rising, single point]",–
COc1ccc(S(=O)(=O)Nc2ccc3c(c2)C(=O)N([C@H](C)CO)C[C@H](C)[C@@H](CN(C)C(=O)Nc2ccccc2)O3)cc1,"0.82 µM [rising, partial curve, poor fit]",–
COc1ccc(NC(=O)C/C(C)=N/NC(=O)c2cnccn2)cc1Cl,"10 µM [falling, partial curve]",–
CCN(CC)c1ccc(-c2n[nH]c(=S)n2-c2ccccc2C)cc1,"35.5 µM [falling, single point]",–
CC1Cc2ccccc2N1C(=O)COC(=O)C1=COCCO1 (stereo not drawn),"6.31 µM [rising, single point]",–
CCc1cccc(OCC(=O)Nc2ccc(S(=O)(=O)Nc3onc(C)c3C)cc2)c1,"29.1 µM [falling, single point]",–
CC(C)c1ccc(/C=C/C(=O)N2CCCCCC2)cc1,"13 µM [rising, partial curve]",–
Cc1nc2c(C)cccn2c(=O)c1NC(=O)c1cccs1,"2.06 µM [rising, partial curve, poor fit]",–
CNS(=O)(=O)c1ccc(NCC2COc3ccccc3O2)c([N+](=O)[O-])c1 (stereo not drawn),"16.4 µM [rising, partial curve, poor fit]",–
COc1ccc2c(OC)cc(=O)n(C)c2c1,"23.1 µM [rising, single point]","29.1 µM [falling, single point]"
O=C(c1cnccn1)N1CCc2c([nH]c3ccccc23)C1c1cccc(Cl)c1 (stereo not drawn),"17.8 µM [falling, single point]",–
O=C(Nc1ccc(-c2cn3ccccc3n2)cc1)c1ccco1,"14.6 µM [falling, single point]",–
COc1ccc(C(=O)/C=C/Nc2ccc([N+](=O)[O-])cc2C)c(OC)c1,"20.6 µM [rising, single point]",–
COc1ccccc1C1(CCNC(C)c2cccs2)CCOC(C(C)C)C1 (stereo not drawn),"12.6 µM [falling, partial curve]",–
CCOC(=O)C1CCCN(C(=O)C2CCN(S(=O)(=O)c3cccs3)CC2)C1 (stereo not drawn),"1.84 µM [falling, single point]",–
Cc1ccc2nc3ccc(N4CCCC4)nn3c(=O)c2c1,"10 µM [falling, partial curve, poor fit]",–

# Some of the entries so far, as tab-separated lines:
Structure (SMILES)	AC50 [1]	AC50 [2]
O=C(NN1C(=O)c2cc(Br)ccc2NC1c1cc(Br)cc(Br)c1O)c1ccncc1 (stereo not drawn)	6.51 µM [falling, partial curve, poor fit]	–
CCOc1ccc(OCC(=O)NCc2n[nH]c(=O)c3ccccc23)cc1	16.4 µM [falling, single point]	–
CCn1nc(C(=O)O)c(=O)c2cc3c(cc21)OCO3	0.1 µM [falling, full curve, poor fit]	–
CC(C)C(=O)Nc1ccccc1Cc1ccccc1	22.4 µM [rising, single point]	–
CCC(C)NC(=O)c1cc2cc3ccc(OC)cc3nc2s1 (stereo not drawn)	29.1 µM [falling, single point]	–
CN(C)c1nc(=S)nc(NCc2ccccc2)[nH]1	35.5 µM [rising, single point]	–
CC(C)c1ccc(CNc2ccc([N+](=O)[O-])cn2)cc1	35.5 µM [rising, single point]	–
COc1ccc(S(=O)(=O)Nc2ccc3c(c2)C(=O)N([C@H](C)CO)C[C@H](C)[C@@H](CN(C)C(=O)Nc2ccccc2)O3)cc1	0.82 µM [rising, partial curve, poor fit]	–
COc1ccc(NC(=O)C/C(C)=N/NC(=O)c2cnccn2)cc1Cl	10 µM [falling, partial curve]	–
CCN(CC)c1ccc(-c2n[nH]c(=S)n2-c2ccccc2C)cc1	35.5 µM [falling, single point]	–
CC1Cc2ccccc2N1C(=O)COC(=O)C1=COCCO1 (stereo not drawn)	6.31 µM [rising, single point]	–
CCc1cccc(OCC(=O)Nc2ccc(S(=O)(=O)Nc3onc(C)c3C)cc2)c1	29.1 µM [falling, single point]	–
CC(C)c1ccc(/C=C/C(=O)N2CCCCCC2)cc1	13 µM [rising, partial curve]	–
Cc1nc2c(C)cccn2c(=O)c1NC(=O)c1cccs1	2.06 µM [rising, partial curve, poor fit]	–
CNS(=O)(=O)c1ccc(NCC2COc3ccccc3O2)c([N+](=O)[O-])c1 (stereo not drawn)	16.4 µM [rising, partial curve, poor fit]	–
COc1ccc2c(OC)cc(=O)n(C)c2c1	23.1 µM [rising, single point]	29.1 µM [falling, single point]
O=C(c1cnccn1)N1CCc2c([nH]c3ccccc23)C1c1cccc(Cl)c1 (stereo not drawn)	17.8 µM [falling, single point]	–

# Next structures follow:

Structure (SMILES),AC50 [1],AC50 [2]
Cc1ccsc1C1NC(=O)c2c(sc3c2CCCC3)N1 (stereo not drawn),"8.2 µM [falling, single point]",–
CCOc1ccc2nc(NC(=O)c3ccco3)sc2c1,"7.94 µM [falling, partial curve]",–
Cc1cccc(-n2c(C)cc(/C=N\NC(=O)c3cccs3)c2C)c1,"20.6 µM [falling, single point]",–
COC(=O)/C=C/C(=O)Nc1cccnc1,"15.8 µM [falling, single point]",–
CC(C)(C)c1csc(NNC(=O)c2ccc(Cl)cc2)n1,"31.6 µM [falling, single point]",–
Cc1ccc(C)n1-c1cc([N+](=O)[O-])ccc1-n1ccnc1,"35.5 µM [rising, single point]",–
CN1CCC(=NNC(=O)CSCc2ccccc2)CC1,"5.62 µM [falling, single point]",–
CC(C)n1cnc2c(NCc3ccc(S(N)(=O)=O)cc3)nc(NCc3ccc(S(N)(=O)=O)cc3)nc21,"0.316 µM [rising, partial curve, poor fit]",–
COc1cccc(OCC(O)CN2CCN(c3ccccc3)CC2)c1 (stereo not drawn),"2.51 µM [rising, partial curve, poor fit]",–
CCOC(=O)c1c(C)[nH]c(C(=O)OCC(=O)N(C)c2c(N)n(Cc3ccccc3)c(=O)[nH]c2=O)c1C,"18.4 µM [falling, single point]",–
COc1ccc(S(=O)(=O)N(C)C[C@H]2Oc3ccc(NC(=O)C4CC4)cc3C(=O)N([C@H](C)CO)C[C@@H]2C)cc1,"13 µM [rising, single point]",–
CCCCC(=O)Nc1ccc(C)c(O)c1,"3.55 µM [rising, full curve, poor fit]",–
CCCc1nc(SCC(=O)N2CCc3ccccc3C2)c2ccccc2n1,"10 µM [falling, partial curve]",–
COC(=O)c1sccc1NC(=S)N(C)C1CCCCC1,"35.5 µM [rising, partial curve, poor fit]",–
S=C1N(c2ccccc2)CN(CCN2CCOCC2)CN1c1ccccc1,"2 µM [rising, full curve, poor fit]",–
COc1cccc(N2CCN(C(=O)c3ccc4nc(N5CCC(C)CC5)sc4c3)CC2)c1,"3.98 µM [falling, partial curve, poor fit]",–
Cn1cccc1C(=O)OCC(=O)c1c[nH]c2ccccc12,"18.4 µM [falling, single point]",–
Cc1ccc(NC(=O)CSc2nnc(-c3ccc(S(=O)(=O)N4CCOCC4)cc3)n2C)cc1,"2.31 µM [rising, full curve, poor fit]",–
CCOC(=O)c1c(C)[nH]c(C(=O)CSc2ccccc2)c1C,"1.78 µM [rising, full curve, poor fit]",–
Cc1cc(C(=O)OCC(=O)NCc2ccco2)c(C)n1-c1ccc(F)cc1,"3.16 µM [rising, single point]","7.94 µM [falling, partial curve]"
CCOC(=O)C1=C(COC(=O)c2ncc(Cl)c(Cl)c2Cl)NC(=O)NC1C (stereo not drawn),"29.1 µM [falling, single point]",–
O=C(OCC(=O)N1CCN(C(=O)c2ccco2)CC1)c1ccc(S(=O)(=O)N2CCCCC2)cc1,"35.5 µM [rising, partial curve, poor fit]",–

Structure (SMILES),AC50 [1],AC50 [2]
CNc1ncc(C(=O)c2ccc(F)cc2)s1,"20 µM [falling, single point]",–
CCc1ccc(/C=C2\SC(=S)N(CCCC(=O)Nc3ccccn3)C2=O)cc1,"5.01 µM [falling, partial curve]",–
O=C(CSc1nc(C2CCCCC2)n(-c2ccccc2)n1)NCCN1C(=O)CSC1=O,"3.66 µM [falling, partial curve, poor fit]",–
O=C(CN1CCCCCC1=O)OCc1ncc(-c2ccccc2)o1,"10 µM [rising, partial curve]",–
CCOC(=O)N1CCC(NC(=O)c2oc3c(F)cccc3c2C)CC1,"6.31 µM [rising, full curve, poor fit]",–
O=C(Nc1nc2ccccc2[nH]1)c1cccc(F)c1,"2.24 µM [falling, full curve]",–
CCc1nc(NCc2ccco2)c2oc3ccccc3c2n1,"6.31 µM [falling, full curve]","17.8 µM [rising, partial curve, poor fit]"
COc1ccc(-c2nn(-c3ccccc3)cc2/C=N/NS(=O)(=O)c2ccccc2)cc1,"5.62 µM [rising, partial curve]",–
O=C(CCn1c(SCC(=O)NCc2ccco2)nc2ccccc2c1=O)NCCc1ccccc1,"10 µM [falling, partial curve, poor fit]",–
Cn1c(=O)c2cc(S(=O)(=O)NCCC(=O)N3CC=C(c4ccccc4)CC3)ccc2n(C)c1=O,"22.4 µM [falling, single point]",–
CC(Oc1ccc(Cl)cc1)C(=O)Nc1ncccn1 (stereo not drawn),"2.82 µM [rising, single point]",–
COc1ccccc1NC(=O)C(=O)NCc1ccncc1,"9.2 µM [falling, partial curve]",–
O=C(CCS(=O)(=O)c1ccccc1)Nc1nc2cc3c(cc2s1)OCO3,–,"3.98 µM [rising, partial curve, poor fit]"
C=C(C)C1Cc2cc3ccc(=O)oc3cc2O1 (stereo not drawn),"13 µM [rising, partial curve]","23.1 µM [falling, single point]"
CN(CC(=O)Nc1nccs1)S(=O)(=O)c1ccc(F)cc1,"3.66 µM [falling, full curve, poor fit]",–
COc1ccc(Cn2ccc(=O)c(Cc3c(Cl)cccc3Cl)c2C)cc1,"12.6 µM [falling, partial curve, poor fit]",–
CCC1=NN2C(=N)/C(=C\c3cccn3-c3ccc(Cl)cc3)C(=O)N=C2S1,"1.41 µM [rising, full curve, poor fit]",–
Cc1ccc(C(=O)NC2CCCCC2)cc1,"10 µM [falling, partial curve]",–
Cn1c(=O)[nH]c(=O)c2c1nc(SCC(O)CO)n2Cc1ccccc1Cl (stereo not drawn),"10 µM [rising, partial curve, poor fit]",–
CC(C)N1CCc2c(sc(NC(=O)CCS(=O)(=O)c3ccccc3)c2C#N)C1,"20 µM [falling, partial curve, poor fit]",–
